According to paper PMC8566207:
These are yes or no findings as the source states them, for the method shown. Binding calls can cover weak binding; strength is not graded here. For some of these results: Binding seen in cells or lysates may run through a third protein.

Protein sequences, listed by entry. Tags and fused reporters are not part of them. Lines headed by an entry give the natural chain unless they say otherwise; changes in a name come on top.
UniProt O49279: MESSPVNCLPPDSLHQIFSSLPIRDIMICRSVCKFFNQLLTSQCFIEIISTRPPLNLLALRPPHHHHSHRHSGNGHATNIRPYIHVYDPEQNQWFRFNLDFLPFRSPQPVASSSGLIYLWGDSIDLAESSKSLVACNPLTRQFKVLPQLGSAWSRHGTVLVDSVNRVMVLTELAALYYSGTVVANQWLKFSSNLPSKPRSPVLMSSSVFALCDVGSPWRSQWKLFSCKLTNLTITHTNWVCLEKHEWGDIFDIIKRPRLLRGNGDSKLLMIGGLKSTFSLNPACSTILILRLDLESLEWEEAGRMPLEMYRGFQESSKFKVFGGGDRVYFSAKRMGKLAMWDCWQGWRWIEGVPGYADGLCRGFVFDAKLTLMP
UniProt Q9LN63: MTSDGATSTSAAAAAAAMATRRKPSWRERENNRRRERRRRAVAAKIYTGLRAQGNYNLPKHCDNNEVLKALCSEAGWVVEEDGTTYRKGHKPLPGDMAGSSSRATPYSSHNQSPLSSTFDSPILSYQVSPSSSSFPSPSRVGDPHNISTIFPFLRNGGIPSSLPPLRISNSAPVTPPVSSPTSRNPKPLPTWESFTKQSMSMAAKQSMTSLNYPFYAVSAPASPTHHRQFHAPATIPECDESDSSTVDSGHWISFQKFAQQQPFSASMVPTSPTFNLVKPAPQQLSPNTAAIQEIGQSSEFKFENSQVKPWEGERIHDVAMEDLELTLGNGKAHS

What was measured:
[1] = target: full-length BAF1-cYFP (Arabidopsis thaliana) (UniProt O49279); assay: split reporter; BiFC: nYFP and cYFP fusions co-infiltrated by Agrobacterium into N. benthamiana leaves; YFP signal by confocal microscopy after 36 h
[2] = target: GST-BAF1 (Arabidopsis thaliana) (UniProt O49279); assay: pull-down; GST or GST fusions mixed with MBP fusion protein in 50 mM Tris-HCl pH 7.5, 200 mM NaCl, 0.5% Triton X-100, 0.5 mM β-mercaptoethanol, room temperature 2 h; captured on GST beads; MBP fusion detected with anti-MBP; both purified
[3] = target: BAF1-FLAG (Arabidopsis thaliana) (UniProt O49279); assay: co-IP; Arabidopsis protoplasts co-transformed with FLAG and GFP constructs; anti-FLAG M2 on protein G Dynabeads, 4 °C; blot with anti-GFP and anti-FLAG

Row | binding [3] | Substance | further results
1 |  | BES1-nYFP (from UniProt Q9LN63 1-335) | binding [1]: binds weakly
2 |  | MBP-BES1 (from UniProt Q9LN63 1-335) | binding [2]: binds
3 | binds | dephosphorylated BES1-GFP (from UniProt Q9LN63 1-335) | 
4 | binds | phosphorylated BES1-GFP (P-BES1-GFP) (from UniProt Q9LN63 1-335) | 
